# PubChem BioAssay AID1259275 – Sanger Institute – 2017
# Assay: 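Knock-downs that cut viability on their own or combined with BYL719, cetuximab or trametinib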 (primary screen)
# System: COLO320HSR human colorectal cancer cells
# Knock-down reagent: siRNA pool against human genes
# Conditions: anchor drug added one day after transfection: BYL719 at 1 µM, cetuximab at 5 µg/ml or trametinib at 10 nM; DMSO as vehicle arm
# Measurement: 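Viability averaged over replicates as a fraction of the non-targeting pool, a robust z-score for knock-down alone, and synergy scores with BYL719 (1 µM), cetuximab (5 µg/ml) or trametinib (10 nM)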
# Reading the numbers: robust z-score, siRNA alone: higher = more viable cells; strongly negative means essential; viability, knock-down alone (DMSO): higher = more viable cells
# Rule for the call: 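a gene is called essential when its robust z-score without drug falls below -3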
# Meaning of the calls: active = essential (siRNA alone); inactive = no change (siRNA alone)
# Shown is one part, drawn at random, of 794 reagents tested. In the full data, 13 (1.6%) got an active call. 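Calls mark knock-downs lethal by themselves, not drug synergy; drugs went in a day after transfection, with DMSO as vehicle.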 Viability is capped at 1. Not all columns of the deposit are shown. The record does not give: the amount of reagent, the time to read-out.
target,"robust z-score, siRNA alone","viability, knock-down alone (DMSO) (fraction of control)",call
PTK6,0.726,1,inactive
FES,0.69,0.997,inactive
PASK,-1.04,0.84,inactive
MAP3K15,0.726,1,inactive
NTRK3,0.726,1,inactive
GALK2,0.726,1,inactive
PLK3,0.344,0.966,inactive
TTBK1,-0.518,0.888,inactive
NEK4,-0.721,0.869,inactive
EFNB3,-0.454,0.893,inactive
PRKG1,0.726,1,inactive
CDKL3,0.726,1,inactive
CMPK1,0.726,1,inactive
PIK3C2G,0.726,1,inactive
PDPK1,-0.432,0.895,inactive
PFKFB3,0.726,1,inactive
PKLR,0.726,1,inactive
LMBR1,0.726,1,inactive
MAPKAPK5,-0.601,0.88,inactive
ABL2,0.726,1,inactive

Limited to “robust z-score, siRNA alone”, for 3 of the entries above:
PLK3: 0.344
TTBK1: -0.518
NEK4: -0.721
